Assay [1] addresses apoptosis-associated speck-like protein containing a caspase activation and recruitment domain (ASC), human, endogenous in THP1 cells (human (endogenous in THP1)) (UniProt Q9ULZ3). In words: co-IP; lysates of LPS-primed THP1 cells or BMDMs treated with the indicated concentrations of 8A for 1 h, then ATP for 15 min; endogenous proteins; precipitating antibody not told.
The target of assay [2] is T1, apoptosis-associated speck-like protein containing a caspase activation and recruitment domain (ASC), mouse, endogenous in bone marrow-derived macrophages (mouse (endogenous in BMDM)) (UniProt Q9EPB4).
T1 sequence: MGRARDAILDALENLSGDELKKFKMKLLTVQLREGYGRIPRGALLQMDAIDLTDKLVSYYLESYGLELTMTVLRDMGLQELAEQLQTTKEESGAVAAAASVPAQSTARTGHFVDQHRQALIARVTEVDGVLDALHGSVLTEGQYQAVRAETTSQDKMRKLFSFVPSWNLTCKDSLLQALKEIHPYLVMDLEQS
The assay is described as above.

Protein sequences, listed by entry. Tags and fused reporters are not part of them.
UniProt Q9ULZ3: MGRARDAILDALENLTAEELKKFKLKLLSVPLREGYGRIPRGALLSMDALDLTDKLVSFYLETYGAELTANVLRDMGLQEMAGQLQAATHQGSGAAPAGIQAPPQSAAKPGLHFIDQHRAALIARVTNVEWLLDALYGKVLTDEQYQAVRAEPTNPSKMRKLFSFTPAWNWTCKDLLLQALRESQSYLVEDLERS
UniProt P29466: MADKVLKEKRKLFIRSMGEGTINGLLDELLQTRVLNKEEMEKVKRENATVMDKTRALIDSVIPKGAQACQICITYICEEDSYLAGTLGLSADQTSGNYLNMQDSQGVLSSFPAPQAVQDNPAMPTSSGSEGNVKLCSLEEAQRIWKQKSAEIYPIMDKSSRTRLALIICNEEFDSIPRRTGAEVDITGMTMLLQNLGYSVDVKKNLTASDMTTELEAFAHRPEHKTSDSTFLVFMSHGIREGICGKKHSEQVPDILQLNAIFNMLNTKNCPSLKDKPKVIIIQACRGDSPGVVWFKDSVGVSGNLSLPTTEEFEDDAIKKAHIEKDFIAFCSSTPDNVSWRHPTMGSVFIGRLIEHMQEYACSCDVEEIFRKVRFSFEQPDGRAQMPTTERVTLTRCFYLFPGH

These are yes or no findings as the source states them, for the method shown. In cells and extracts the contact can be indirect. Some binding calls cover weakened binding; strength is not graded here.

Turning to “caspase-1 (pro-CASP1), human, endogenous in THP1 cells (from UniProt P29466 1-404)”, the binding entry in assay [1] is reported as “binds”.

B1: caspase-1 (pro-CASP1), mouse, endogenous in bone marrow-derived macrophages (protein, UniProt P29452 1-402)
chain: MADKILRAKRKQFINSVSIGTINGLLDELLEKRVLNQEEMDKIKLANITAMDKARDLCDHVSKKGPQASQIFITYICNEDCYLAGILELQSAPSAETFVATEDSKGGHPSSSETKEEQNKEDGTFPGLTGTLKFCPLEKAQKLWKENPSEIYPIMNTTTRTRLALIICNTEFQHLSPRVGAQVDLREMKLLLEDLGYTVKVKENLTALEMVKEVKEFAACPEHKTSDSTFLVFMSHGIQEGICGTTYSNEVSDILKVDTIFQMMNTLKCPSLKDKPKVIIIQACRGEKQGVVLLKDSVRDSEEDFLTDAIFEDDGIKKAHIEKDFIAFCSSTPDNVSWRHPVRGSLFIESLIKHMKEYAWSCDLEDIFRKVRFSFEQPEFRLQMPTADRVTLTKRFYLFPGH
As for B1, in assay [2], the binding entry is “binds”.

Source of the values: PMC9730227.
